No constants are given. Whether binding was seen depends on the method and setting. Binding seen in cells or lysates may run through a third protein. Some binding calls cover weakened binding; strength is not graded here. For some assays here: Where a sequence is shown, tags or fusion partners need not be part of it.

Protein sequences, listed by entry. Tags and fused reporters are not part of them. Lines headed by an entry give the natural chain unless they say otherwise; changes in a name come on top. Chains listed by the source or under a name are the forms on record and can include a tag or linker.
mCherry-PIPKIγ-i5 (O60331, form named): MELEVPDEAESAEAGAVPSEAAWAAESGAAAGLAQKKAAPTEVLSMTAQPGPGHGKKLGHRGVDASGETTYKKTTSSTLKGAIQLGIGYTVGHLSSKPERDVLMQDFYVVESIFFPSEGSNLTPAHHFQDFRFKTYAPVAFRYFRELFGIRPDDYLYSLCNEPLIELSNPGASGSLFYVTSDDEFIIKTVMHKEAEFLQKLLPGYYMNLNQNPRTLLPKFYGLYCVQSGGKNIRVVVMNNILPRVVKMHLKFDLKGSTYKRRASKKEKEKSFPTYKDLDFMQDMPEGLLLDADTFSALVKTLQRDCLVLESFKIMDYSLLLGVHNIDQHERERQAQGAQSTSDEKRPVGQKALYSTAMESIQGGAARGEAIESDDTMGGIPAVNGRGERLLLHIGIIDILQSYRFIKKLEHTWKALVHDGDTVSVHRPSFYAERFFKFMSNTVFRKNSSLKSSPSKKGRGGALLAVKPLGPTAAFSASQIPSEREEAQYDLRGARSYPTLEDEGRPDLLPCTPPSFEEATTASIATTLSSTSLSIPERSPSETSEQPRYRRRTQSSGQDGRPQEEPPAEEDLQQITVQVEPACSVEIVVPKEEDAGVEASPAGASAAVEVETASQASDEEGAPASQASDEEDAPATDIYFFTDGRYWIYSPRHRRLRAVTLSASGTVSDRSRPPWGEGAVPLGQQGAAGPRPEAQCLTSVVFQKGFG
UniProt O14578: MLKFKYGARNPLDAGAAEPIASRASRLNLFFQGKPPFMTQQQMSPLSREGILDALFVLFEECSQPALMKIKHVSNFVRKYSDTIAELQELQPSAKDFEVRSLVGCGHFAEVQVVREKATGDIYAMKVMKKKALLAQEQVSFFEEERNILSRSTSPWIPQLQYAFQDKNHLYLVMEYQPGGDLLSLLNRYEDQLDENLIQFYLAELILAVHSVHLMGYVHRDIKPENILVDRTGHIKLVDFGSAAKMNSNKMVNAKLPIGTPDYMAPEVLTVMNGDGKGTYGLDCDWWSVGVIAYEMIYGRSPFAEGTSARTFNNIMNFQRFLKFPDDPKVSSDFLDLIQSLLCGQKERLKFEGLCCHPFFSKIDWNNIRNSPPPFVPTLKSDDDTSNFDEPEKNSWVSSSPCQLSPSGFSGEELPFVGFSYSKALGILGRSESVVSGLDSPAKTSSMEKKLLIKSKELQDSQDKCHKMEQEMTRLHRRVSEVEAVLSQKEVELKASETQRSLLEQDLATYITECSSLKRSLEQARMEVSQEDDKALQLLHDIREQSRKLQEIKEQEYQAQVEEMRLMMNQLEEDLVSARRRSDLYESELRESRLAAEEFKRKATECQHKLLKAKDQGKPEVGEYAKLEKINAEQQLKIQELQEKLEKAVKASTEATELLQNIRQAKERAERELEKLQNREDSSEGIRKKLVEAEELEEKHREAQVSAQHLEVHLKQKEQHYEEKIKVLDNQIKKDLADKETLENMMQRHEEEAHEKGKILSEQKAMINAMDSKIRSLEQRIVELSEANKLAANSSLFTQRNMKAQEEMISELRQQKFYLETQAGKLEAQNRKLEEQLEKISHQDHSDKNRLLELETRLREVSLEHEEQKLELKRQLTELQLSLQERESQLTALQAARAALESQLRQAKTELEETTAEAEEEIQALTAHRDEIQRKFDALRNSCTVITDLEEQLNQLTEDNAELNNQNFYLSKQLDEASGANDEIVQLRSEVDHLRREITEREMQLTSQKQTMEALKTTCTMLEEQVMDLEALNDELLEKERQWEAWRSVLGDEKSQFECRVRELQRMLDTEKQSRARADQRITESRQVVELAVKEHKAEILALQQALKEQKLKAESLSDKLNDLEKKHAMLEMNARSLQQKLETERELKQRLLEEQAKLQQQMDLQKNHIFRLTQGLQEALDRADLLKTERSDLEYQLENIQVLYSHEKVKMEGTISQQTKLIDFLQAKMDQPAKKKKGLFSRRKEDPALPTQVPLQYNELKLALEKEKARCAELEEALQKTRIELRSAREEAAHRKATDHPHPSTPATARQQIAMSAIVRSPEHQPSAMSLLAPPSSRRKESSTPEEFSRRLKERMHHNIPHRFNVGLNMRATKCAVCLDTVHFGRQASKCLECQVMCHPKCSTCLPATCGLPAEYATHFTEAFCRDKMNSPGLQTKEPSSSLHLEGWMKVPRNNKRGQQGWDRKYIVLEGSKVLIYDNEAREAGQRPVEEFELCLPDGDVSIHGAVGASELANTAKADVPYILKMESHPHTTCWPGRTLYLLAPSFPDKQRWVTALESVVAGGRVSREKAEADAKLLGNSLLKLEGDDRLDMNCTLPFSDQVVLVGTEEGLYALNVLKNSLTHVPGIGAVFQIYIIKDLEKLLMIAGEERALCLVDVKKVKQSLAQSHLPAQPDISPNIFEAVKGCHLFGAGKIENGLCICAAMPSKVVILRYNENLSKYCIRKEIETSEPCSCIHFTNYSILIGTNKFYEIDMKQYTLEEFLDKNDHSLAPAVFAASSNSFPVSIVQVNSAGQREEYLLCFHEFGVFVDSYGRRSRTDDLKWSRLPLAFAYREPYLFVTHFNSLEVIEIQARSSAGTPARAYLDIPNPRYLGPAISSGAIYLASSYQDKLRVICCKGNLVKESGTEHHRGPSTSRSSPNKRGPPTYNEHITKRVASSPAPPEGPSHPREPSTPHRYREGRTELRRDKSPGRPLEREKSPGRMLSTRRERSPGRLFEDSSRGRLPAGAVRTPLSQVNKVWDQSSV

We go through five molecules from publication PMC12886786.

For experiment [1], the target named is T1, endogenous SEPT2 (HeLa) (human (endogenous in HeLa)) (UniProt Q15019).
T1 sequence: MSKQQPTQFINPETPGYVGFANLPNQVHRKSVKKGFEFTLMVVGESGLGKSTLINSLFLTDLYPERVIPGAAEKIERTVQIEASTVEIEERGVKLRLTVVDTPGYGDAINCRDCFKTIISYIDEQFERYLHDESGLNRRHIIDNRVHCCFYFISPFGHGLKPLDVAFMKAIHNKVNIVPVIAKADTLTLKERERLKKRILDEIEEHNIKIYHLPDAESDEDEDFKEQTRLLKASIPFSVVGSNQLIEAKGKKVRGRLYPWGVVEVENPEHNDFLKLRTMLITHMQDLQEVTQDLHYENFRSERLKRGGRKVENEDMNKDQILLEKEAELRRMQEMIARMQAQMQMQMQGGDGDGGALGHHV
The experiment is described as follows: co-IP; endogenous SEPT2 immunoprecipitated (rabbit anti-SEPT2 on protein A/G magnetic beads, 3-4 h at 4 °C) from lysates of HeLa cells in cytokinesis or arrested in S-phase by thymidine; Western blot. (In western blotting, separated proteins are transferred to a membrane and probed.)

The target of experiment [2] is mCherry-PIPKIγ-i5 (human) (UniProt O60331). The experiment is described as follows: co-IP; HEK-293T co-transfected with mCherry-PIPKIγ and myc-tagged SEPT7 or SEPT9; RFP-Trap magnetic particles, 2.5 h at 4 °C; lysis buffer 20 mM HEPES, 100 mM KCl, 2 mM MgCl2, 1% Triton X-100, pH 7.4; immunoblot.

In the case of “citron kinase (from UniProt O14578 1-2027)”, the binding entry in experiment [1] is given as “binds”.

B1: anillin (protein, UniProt Q9NQW6 1-1124)
chain: MDPFTEKLLERTRARRENLQRKMAERPTAAPRSMTHAKRARQPLSEASNQQPLSGGEEKSCTKPSPSKKRCSDNTEVEVSNLENKQPVESTSAKSCSPSPVSPQVQPQAADTISDSVAVPASLLGMRRGLNSRLEATAASSVKTRMQKLAEQRRRWDNDDMTDDIPESSLFSPMPSEEKAASPPRPLLSNASATPVGRRGRLANLAATICSWEDDVNHSFAKQNSVQEQPGTACLSKFSSASGASARINSSSVKQEATFCSQRDGDASLNKALSSSADDASLVNASISSSVKATSPVKSTTSITDAKSCEGQNPELLPKTPISPLKTGVSKPIVKSTLSQTVPSKGELSREICLQSQSKDKSTTPGGTGIKPFLERFGERCQEHSKESPARSTPHRTPIITPNTKAIQERLFKQDTSSSTTHLAQQLKQERQKELACLRGRFDKGNIWSAEKGGNSKSKQLETKQETHCQSTPLKKHQGVSKTQSLPVTEKVTENQIPAKNSSTEPKGFTECEMTKSSPLKITLFLEEDKSLKVTSDPKVEQKIEVIREIEMSVDDDDINSSKVINDLFSDVLEEGELDMEKSQEEMDQALAESSEEQEDALNISSMSLLAPLAQTVGVVSPESLVSTPRLELKDTSRSDESPKPGKFQRTRVPRAESGDSLGSEDRDLLYSIDAYRSQRFKETERPSIKQVIVRKEDVTSKLDEKNNAFPCQVNIKQKMQELNNEINMQQTVIYQASQALNCCVDEEHGKGSLEEAEAERLLLIATGKRTLLIDELNKLKNEGPQRKNKASPQSEFMPSKGSVTLSEIRLPLKADFVCSTVQKPDAANYYYLIILKAGAENMVATPLASTSNSLNGDALTFTTTFTLQDVSNDFEINIEVYSLVQKKDPSGLDKKKKTSKSKAITPKRLLTSITTKSNIHSSVMASPGGLSAVRTSNFALVGSYTLSLSSVGNTKFVLDKVPFLSSLEGHIYLKIKCQVNSSVEERGFLTIFEDVSGFGAWHRRWCVLSGNCISYWTYPDDEKRKNPIGRINLANCTSRQIEPANREFCARRNTFELITVRPQREDDRETLVSQCRDTLCVTKNWLSADTKEERDLWMQKLNQVLVDIRLWQPDACYKPIGKP
With B1, in experiment [1], the binding entry is listed as “binds”.

B2: myc-tagged SEPT9 (protein, UniProt Q9UHD8 1-586)
chain: MKKSYSGGTRTSSGRLRRLGDSSGPALKRSFEVEEVETPNSTPPRRVQTPLLRATVASSTQKFQDLGVKNSEPSARHVDSLSQRSPKASLRRVELSGPKAAEPVSRRTELSIDISSKQVENAGAIGPSRFGLKRAEVLGHKTPEPAPRRTEITIVKPQESAHRRMEPPASKVPEVPTAPATDAAPKRVEIQMPKPAEAPTAPSPAQTLENSEPAPVSQLQSRLEPKPQPPVAEATPRSQEATEAAPSCVGDMADTPRDAGLKQAPASRNEKAPVDFGYVGIDSILEQMRRKAMKQGFEFNIMVVGQSGLGKSTLINTLFKSKISRKSVQPTSEERIPKTIEIKSITHDIEEKGVRMKLTVIDTPGFGDHINNENCWQPIMKFINDQYEKYLQEEVNINRKKRIPDTRVHCCLYFIPATGHSLRPLDIEFMKRLSKVVNIVPVIAKADTLTLEERVHFKQRITADLLSNGIDVYPQKEFDEDSEDRLVNEKFREMIPFAVVGSDHEYQVNGKRILGRKTKWGTIEVENTTHCEFAYLRDLLIRTHMQNIKDITSSIHFEAYRVKRLNEGSSAMANGMEEKEPEAPEM
In the case of B2, the binding entry in experiment [2] is “binds”.

B3: myc-tagged SEPT7 (protein, UniProt Q16181 1-437)
chain: MSVSARSAAAEERSVNSSTMVAQQKNLEGYVGFANLPNQVYRKSVKRGFEFTLMVVGESGLGKSTLINSLFLTDLYSPEYPGPSHRIKKTVQVEQSKVLIKEGGVQLLLTIVDTPGFGDAVDNSNCWQPVIDYIDSKFEDYLNAESRVNRRQMPDNRVQCCLYFIAPSGHGLKPLDIEFMKRLHEKVNIIPLIAKADTLTPEECQQFKKQIMKEIQEHKIKIYEFPETDDEEENKLVKKIKDRLPLAVVGSNTIIEVNGKRVRGRQYPWGVAEVENGEHCDFTILRNMLIRTHMQDLKDVTNNVHYENYRSRKLAAVTYNGVDNNKNKGQLTKSPLAQMEEERREHVAKMKKMEMEMEQVFEMKVKEKVQKLKDSEAELQRRHEQMKKNLEAQHKELEEKRRQFEDEKANWEAQQRILEQQNSSRTLEKNKKKGKIF
Consider B3, for which the binding result in experiment [2] is “binds”.

B4: mitotic kinesin-like protein 1 (MKLP1) (protein, UniProt Q02241 1-960)
chain: MKSARAKTPRKPTVKKGSQTNLKDPVGVYCRVRPLGFPDQECCIEVINNTTVQLHTPEGYRLNRNGDYKETQYSFKQVFGTHTTQKELFDVVANPLVNDLIHGKNGLLFTYGVTGSGKTHTMTGSPGEGGLLPRCLDMIFNSIGSFQAKRYVFKSNDRNSMDIQCEVDALLERQKREAMPNPKTSSSKRQVDPEFADMITVQEFCKAEEVDEDSVYGVFVSYIEIYNNYIYDLLEEVPFDPIKPKPPQSKLLREDKNHNMYVAGCTEVEVKSTEEAFEVFWRGQKKRRIANTHLNRESSRSHSVFNIKLVQAPLDADGDNVLQEKEQITISQLSLVDLAGSERTNRTRAEGNRLREAGNINQSLMTLRTCMDVLRENQMYGTNKMVPYRDSKLTHLFKNYFDGEGKVRMIVCVNPKAEDYEENLQVMRFAEVTQEVEVARPVDKAICGLTPGRRYRNQPRGPVGNEPLVTDVVLQSFPPLPSCEILDINDEQTLPRLIEALEKRHNLRQMMIDEFNKQSNAFKALLQEFDNAVLSKENHMQGKLNEKEKMISGQKLEIERLEKKNKTLEYKIEILEKTTTIYEEDKRNLQQELETQNQKLQRQFSDKRRLEARLQGMVTETTMKWEKECERRVAAKQLEMQNKLWVKDEKLKQLKAIVTEPKTEKPERPSRERDREKVTQRSVSPSPVPLSSNYIAQISNGQQLMSQPQLHRRSNSCSSISVASCISEWEQKIPTYNTPLKVTSIARRRQQEPGQSKTCIVSDRRRGMYWTEGREVVPTFRNEIEIEEDHCGRLLFQPDQNAPPIRLRHRRSRSAGDRWVDHKPASNMQTETVMQPHVPHAITVSVANEKALAKCEKYMLTHQELASDGEIETKLIKGDIYKTRGGGQSVQFTDIETLKQESPNGSRKRRSSTVAPAQPDGAESEWTDVETRCSVAVEMRAGSQLGPGYQHHAQPKRKKP
Regarding B4, in experiment [1], the binding result is “binds”.
